Experimental data taken from US9758529B2, “Fused dihydro-4H-pyrazolo[5,1-C][1,4]oxazinyl compounds and analogs for treating CNS disorders” (Sunovion Pharmaceuticals Inc., priority 2015, dated 2017).
The name of at least one read-out is uncertain.

System: CD1 mice
Assay: Tail Suspension Test (TST)
Format: in vivo
Settings: adult male CD1 mice, 30 mg/kg ip 30 min before test, suspended by the tail for 10 min

## CNC[C@@H]1OCCn2nc3ccsc3c21 [Compound 68, (S)-1-(6,7-dihydro-9H-thieno[3′,2′:3,4]pyrazolo[5,1-c][1,4]oxazin-9-yl)-N-methylmethanamine]
  Mean Total Time Immobile: 86.1 s
